The supplement of paper PMC10849652
The list shows a part of the results.

By UniProt entry, the sequences of proteins in these tests, tags left out. Where a name states a change or a piece, a line headed by the entry shows the natural chain unless it says otherwise.
UniProt Q86SQ7: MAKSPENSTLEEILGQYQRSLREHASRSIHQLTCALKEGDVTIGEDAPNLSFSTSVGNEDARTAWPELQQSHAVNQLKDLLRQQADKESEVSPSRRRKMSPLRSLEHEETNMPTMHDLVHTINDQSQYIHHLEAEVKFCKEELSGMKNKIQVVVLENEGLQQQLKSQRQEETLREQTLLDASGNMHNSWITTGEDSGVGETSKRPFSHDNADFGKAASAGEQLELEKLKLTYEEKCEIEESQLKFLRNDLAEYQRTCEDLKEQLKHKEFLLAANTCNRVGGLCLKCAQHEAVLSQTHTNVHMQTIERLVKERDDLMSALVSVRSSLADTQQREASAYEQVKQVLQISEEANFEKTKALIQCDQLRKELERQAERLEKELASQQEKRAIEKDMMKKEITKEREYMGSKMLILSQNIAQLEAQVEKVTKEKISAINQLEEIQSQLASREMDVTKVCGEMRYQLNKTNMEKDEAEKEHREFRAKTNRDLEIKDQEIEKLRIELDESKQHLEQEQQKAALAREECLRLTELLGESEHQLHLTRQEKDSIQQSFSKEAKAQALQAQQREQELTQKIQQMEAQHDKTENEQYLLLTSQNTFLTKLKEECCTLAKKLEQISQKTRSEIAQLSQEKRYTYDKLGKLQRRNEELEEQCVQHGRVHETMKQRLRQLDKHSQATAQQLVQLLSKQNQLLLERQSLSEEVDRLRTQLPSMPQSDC
UniProt Q92503: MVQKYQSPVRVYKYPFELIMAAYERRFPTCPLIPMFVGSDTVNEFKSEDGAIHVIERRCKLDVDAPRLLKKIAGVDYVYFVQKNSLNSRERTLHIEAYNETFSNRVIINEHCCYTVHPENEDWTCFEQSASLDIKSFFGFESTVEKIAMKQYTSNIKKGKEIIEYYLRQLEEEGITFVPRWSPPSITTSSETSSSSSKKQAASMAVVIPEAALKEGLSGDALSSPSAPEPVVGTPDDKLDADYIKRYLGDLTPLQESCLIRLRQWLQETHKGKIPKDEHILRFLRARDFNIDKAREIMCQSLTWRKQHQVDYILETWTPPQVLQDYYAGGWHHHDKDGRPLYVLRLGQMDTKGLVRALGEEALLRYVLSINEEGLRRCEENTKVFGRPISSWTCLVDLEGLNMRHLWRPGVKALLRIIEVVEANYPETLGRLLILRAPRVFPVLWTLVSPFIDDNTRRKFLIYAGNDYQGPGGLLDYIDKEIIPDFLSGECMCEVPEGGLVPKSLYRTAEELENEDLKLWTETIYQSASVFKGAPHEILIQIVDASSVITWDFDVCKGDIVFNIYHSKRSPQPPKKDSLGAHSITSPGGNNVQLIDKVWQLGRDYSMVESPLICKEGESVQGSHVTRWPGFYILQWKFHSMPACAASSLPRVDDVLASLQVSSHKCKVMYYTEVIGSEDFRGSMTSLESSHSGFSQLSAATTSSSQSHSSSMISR
UniProt Q93073: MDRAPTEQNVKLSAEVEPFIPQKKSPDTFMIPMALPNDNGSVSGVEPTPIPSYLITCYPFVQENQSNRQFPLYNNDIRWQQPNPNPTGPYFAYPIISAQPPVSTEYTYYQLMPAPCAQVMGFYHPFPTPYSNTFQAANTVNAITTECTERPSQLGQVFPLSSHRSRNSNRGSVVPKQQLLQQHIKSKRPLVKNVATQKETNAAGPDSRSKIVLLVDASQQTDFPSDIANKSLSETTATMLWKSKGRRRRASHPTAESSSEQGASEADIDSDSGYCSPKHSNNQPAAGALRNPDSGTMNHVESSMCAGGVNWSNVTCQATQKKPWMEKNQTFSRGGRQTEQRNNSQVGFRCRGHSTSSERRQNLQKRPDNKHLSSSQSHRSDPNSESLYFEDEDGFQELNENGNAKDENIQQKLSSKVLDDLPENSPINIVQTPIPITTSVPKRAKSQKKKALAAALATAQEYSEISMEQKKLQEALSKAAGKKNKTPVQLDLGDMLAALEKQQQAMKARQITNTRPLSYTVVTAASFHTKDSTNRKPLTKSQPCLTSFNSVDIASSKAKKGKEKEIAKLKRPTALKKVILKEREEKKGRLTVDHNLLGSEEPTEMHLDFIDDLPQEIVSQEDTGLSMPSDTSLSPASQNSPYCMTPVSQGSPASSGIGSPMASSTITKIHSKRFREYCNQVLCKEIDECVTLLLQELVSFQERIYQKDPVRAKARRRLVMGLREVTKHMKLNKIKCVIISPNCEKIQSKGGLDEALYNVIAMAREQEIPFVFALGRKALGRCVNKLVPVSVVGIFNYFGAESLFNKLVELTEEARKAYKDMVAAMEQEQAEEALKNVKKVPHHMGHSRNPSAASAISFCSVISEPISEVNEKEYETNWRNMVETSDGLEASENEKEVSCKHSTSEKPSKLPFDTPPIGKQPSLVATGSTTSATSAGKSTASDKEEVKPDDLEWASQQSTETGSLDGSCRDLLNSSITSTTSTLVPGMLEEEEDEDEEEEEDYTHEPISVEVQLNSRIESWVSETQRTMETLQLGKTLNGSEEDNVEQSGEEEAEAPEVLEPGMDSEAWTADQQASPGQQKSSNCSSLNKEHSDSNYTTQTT
UniProt O15027: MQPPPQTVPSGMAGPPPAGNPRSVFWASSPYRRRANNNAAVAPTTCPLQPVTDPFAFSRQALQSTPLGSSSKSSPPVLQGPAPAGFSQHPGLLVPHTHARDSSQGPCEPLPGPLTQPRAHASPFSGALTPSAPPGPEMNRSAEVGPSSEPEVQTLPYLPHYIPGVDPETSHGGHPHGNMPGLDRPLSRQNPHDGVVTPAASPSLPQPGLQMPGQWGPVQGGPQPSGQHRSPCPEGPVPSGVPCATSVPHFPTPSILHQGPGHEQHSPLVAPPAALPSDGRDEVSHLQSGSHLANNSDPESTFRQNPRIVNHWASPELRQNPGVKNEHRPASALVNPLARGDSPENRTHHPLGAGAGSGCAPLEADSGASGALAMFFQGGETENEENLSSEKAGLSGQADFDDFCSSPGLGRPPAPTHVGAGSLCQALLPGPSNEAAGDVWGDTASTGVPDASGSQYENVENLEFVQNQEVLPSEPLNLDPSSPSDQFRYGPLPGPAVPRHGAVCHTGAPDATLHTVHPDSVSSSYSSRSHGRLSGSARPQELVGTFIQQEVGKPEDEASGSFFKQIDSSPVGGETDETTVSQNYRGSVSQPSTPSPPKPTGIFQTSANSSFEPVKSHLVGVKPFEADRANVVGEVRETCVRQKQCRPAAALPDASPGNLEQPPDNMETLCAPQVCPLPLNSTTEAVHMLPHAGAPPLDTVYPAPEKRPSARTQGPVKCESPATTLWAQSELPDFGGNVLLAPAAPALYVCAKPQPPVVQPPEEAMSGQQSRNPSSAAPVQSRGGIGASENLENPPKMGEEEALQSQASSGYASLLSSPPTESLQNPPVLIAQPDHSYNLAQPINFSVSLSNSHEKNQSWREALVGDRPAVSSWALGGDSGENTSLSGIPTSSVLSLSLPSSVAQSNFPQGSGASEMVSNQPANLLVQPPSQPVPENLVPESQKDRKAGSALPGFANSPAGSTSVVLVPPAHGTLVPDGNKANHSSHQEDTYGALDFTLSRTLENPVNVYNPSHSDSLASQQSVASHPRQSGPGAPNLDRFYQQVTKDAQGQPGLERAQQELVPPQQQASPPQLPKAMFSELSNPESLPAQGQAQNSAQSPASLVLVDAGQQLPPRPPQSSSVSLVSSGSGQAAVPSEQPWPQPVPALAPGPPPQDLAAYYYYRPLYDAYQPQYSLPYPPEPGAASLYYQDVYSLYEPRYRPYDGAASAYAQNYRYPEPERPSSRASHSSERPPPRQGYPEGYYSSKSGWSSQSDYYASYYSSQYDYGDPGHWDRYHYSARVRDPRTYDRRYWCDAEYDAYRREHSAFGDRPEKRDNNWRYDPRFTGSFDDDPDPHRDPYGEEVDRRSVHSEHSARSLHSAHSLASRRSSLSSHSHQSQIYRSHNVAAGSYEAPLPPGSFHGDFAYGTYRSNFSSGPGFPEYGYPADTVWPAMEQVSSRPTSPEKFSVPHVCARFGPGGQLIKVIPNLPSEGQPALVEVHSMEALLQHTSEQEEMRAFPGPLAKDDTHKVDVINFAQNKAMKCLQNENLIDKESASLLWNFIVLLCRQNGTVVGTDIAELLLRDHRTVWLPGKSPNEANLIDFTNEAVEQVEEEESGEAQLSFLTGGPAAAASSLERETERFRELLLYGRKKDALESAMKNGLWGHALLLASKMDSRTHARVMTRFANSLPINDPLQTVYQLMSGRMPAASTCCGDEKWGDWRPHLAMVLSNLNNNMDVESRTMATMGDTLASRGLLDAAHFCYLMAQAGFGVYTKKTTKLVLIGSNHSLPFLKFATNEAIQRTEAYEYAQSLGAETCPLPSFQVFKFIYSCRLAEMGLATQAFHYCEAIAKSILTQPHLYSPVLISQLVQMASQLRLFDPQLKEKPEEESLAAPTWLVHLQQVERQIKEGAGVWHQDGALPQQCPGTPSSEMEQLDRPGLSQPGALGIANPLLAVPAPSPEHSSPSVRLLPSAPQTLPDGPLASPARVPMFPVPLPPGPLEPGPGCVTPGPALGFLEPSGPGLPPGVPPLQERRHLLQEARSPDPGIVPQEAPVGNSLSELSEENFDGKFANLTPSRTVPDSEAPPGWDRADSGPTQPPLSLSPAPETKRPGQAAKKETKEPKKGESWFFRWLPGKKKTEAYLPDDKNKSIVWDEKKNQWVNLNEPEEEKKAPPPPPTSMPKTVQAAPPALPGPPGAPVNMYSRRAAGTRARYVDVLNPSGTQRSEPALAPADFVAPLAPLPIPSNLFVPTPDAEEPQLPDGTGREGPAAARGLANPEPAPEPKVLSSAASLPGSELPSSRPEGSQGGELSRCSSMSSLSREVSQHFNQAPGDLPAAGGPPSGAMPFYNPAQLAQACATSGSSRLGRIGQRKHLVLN
UniProt Q99590: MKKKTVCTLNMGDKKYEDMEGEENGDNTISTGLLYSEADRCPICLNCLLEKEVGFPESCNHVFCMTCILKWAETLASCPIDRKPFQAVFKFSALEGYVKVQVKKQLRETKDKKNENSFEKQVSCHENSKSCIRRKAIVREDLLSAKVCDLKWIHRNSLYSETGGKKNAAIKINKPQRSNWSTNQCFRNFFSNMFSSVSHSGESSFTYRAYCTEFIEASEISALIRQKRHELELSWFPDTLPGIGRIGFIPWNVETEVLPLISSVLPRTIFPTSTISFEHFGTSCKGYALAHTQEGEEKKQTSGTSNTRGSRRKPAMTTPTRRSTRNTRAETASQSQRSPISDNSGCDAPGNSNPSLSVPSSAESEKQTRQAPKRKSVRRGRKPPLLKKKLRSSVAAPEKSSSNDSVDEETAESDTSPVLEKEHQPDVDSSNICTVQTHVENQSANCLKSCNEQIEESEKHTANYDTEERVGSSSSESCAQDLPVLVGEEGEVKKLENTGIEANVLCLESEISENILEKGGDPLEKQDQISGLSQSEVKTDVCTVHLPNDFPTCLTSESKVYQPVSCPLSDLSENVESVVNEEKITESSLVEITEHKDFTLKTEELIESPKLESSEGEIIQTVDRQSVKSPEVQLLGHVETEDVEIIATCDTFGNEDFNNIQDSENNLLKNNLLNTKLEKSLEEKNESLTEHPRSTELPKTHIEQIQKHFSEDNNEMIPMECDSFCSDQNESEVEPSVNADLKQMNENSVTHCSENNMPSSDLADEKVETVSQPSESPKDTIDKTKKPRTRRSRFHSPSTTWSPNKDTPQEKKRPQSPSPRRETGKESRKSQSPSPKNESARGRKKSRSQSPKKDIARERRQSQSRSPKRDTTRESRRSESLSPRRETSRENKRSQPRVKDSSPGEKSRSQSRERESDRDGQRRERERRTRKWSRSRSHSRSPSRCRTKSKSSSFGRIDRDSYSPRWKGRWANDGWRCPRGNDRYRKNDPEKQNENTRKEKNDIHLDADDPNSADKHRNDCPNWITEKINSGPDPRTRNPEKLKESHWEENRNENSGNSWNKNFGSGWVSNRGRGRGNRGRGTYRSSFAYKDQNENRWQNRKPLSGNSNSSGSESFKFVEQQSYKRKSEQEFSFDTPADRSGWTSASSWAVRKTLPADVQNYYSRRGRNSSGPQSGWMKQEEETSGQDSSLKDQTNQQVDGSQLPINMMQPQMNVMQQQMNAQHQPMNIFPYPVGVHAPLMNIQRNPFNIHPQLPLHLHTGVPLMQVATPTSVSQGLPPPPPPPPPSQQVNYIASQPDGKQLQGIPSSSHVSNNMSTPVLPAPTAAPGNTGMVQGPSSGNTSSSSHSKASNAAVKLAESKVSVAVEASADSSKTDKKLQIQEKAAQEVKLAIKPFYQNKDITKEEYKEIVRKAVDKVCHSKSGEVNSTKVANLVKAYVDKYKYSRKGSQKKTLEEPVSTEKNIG
UniProt O14521: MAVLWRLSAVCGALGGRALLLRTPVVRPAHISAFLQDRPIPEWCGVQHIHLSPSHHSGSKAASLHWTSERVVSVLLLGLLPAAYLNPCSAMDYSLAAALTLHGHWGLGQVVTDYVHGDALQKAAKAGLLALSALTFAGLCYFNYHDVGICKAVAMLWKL

Columns and labels:
Assay in all cases: log2 fold change, soluble protein after heating vs DMSO (PISA); higher = thermal stabilisation; K562 lysate, 10 uM; active = over 0.2 and 3.5 SD of the protein, either way, in both replicates (recomputed)
[1] = compound: NCC(=O)Nc1ccc(-n2nc(C(F)(F)F)cc2-c2ccc3c(ccc4ccccc43)c2)cc1
Method in brief: (§1)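 Dounce homogenisation of K562 pellets in PBS pH 7.4 with 1 mM MgCl2 produced a crude extract, used at 1 mg/mL protein. Exposure to 10 μM compound lasted 30 min, and aliquots were then heated for 3 min across 48°C-58°C, pooled and brought to 0.5% NP-40 at 4°C. The supernatant after 21,000xg for 90 min was quantified by TMTpro 16plex LC-MS/MS with channel sums equalised. Duplicate values are given as log-two fold change in thermal stability relative to solvent controls.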

vorinostat = compound: O=C(CCCCCCC(=O)Nc1ccccc1)NO [vorinostat]
Method in brief: as §1

silmitasertib = compound: O=C(O)c1ccc2c(c1)nc(Nc1cccc(Cl)c1)c1ccncc12 [silmitasertib]
Method in brief: as §1

[2] = compound: O=C1NC(=O)C(c2cnc3ccccn23)=C1c1cn2c3c(cc(F)cc13)CN(C(=O)N1CCCCC1)CC2
Method in brief: as §1

entospletinib = compound: c1cn2cc(-c3ccc4cn[nH]c4c3)nc(Nc3ccc(N4CCOCC4)cc3)c2n1 [entospletinib]
Method in brief: as §1

Measured: log2 fold change

SCLY (UniProt Q96I15)
inactive: [1] 0.005 | vorinostat 0.102 | silmitasertib -0.002 | [2] -0.013 | entospletinib 0.004

SCYL1 (UniProt Q96KG9)
inactive: [1] 0.004 | vorinostat -0.033 | silmitasertib -0.01 | [2] -0.014 | entospletinib 0.016

S100PBP (UniProt Q96BU1)
inactive: [1] -0.209 | vorinostat -0.077 | silmitasertib 0.04 | [2] -0.025 | entospletinib 0.049

SDCCAG8 (UniProt Q86SQ7)
inactive: [1] 0.059 | vorinostat -0.075 | silmitasertib 0.023 | [2] 0.027 | entospletinib -0.018

SEPTIN7 (UniProt Q16181)
inactive: [1] -0.005 | vorinostat 0.07 | silmitasertib -0.002 | [2] -0.023 | entospletinib -0.007

SEC14L1 isoform 2 (UniProt Q92503)
inactive: [1] 0.267

SCAMP3 isoform 2 (UniProt O14828)
inactive: [1] -0.094 | vorinostat 0.085 | silmitasertib -0.034 | [2] -0.353 | entospletinib 0.166

SAR1A (UniProt Q9NR31)
inactive: [1] 0.004 | vorinostat 0.056 | silmitasertib -0.077 | [2] -0.039 | entospletinib -0.089

SEC11C (UniProt Q9BY50)
inactive: [1] 0.108 | vorinostat 0.106 | silmitasertib -0.062 | [2] -0.039

SECISBP2L (UniProt Q93073)
inactive: [1] -0.035 | vorinostat -0.224 | silmitasertib 0.016 | [2] -0.058 | entospletinib 0.068

SEH1L isoform 1 (UniProt Q96EE3)
inactive: [1] 0.056 | vorinostat -0.001 | silmitasertib -0.02 | [2] -0.008 | entospletinib -0.011

SCYL3 isoform 2 (UniProt Q8IZE3)
inactive: [1] -0.014 | vorinostat -0.053 | silmitasertib 0.046 | [2] 0.028 | entospletinib 0.035

SDHAF4 (UniProt Q5VUM1)
inactive: [1] -0.144 | vorinostat 0.121 | silmitasertib -0.045 | [2] -0.075 | entospletinib -0.037

SART1 (UniProt O43290)
inactive: [1] -0.006 | vorinostat 0.012 | silmitasertib 0.002 | [2] 0.002 | entospletinib -0.006

SDHC (UniProt Q99643)
inactive: [1] -0.046 | vorinostat -0.196 | silmitasertib 0.048 | [2] -0.071 | entospletinib 0.088

SCAMP1 (UniProt O15126)
inactive: [1] 0.023 | vorinostat 0.055 | silmitasertib -0.03 | [2] 0.218 | entospletinib -0.03

SBF1 isoform 4 (UniProt O95248)
inactive: [1] 0.013 | silmitasertib -0.046 | [2] 0.056 | entospletinib 0.005
active: vorinostat -0.377

SCRN3 (UniProt Q0VDG4)
inactive: [1] -0.019 | vorinostat 0.104 | silmitasertib -0.047 | [2] -0.005 | entospletinib 0.027

SARG (UniProt Q9BW04)
inactive: [1] 0.022 | vorinostat 0.015 | silmitasertib -0.1 | [2] -0.007 | entospletinib 0.015

SACM1L (UniProt Q9NTJ5)
inactive: [1] -0.094 | vorinostat -0.053 | silmitasertib 0.046 | [2] 0 | entospletinib 0.007

SCFD1 (UniProt Q8WVM8)
inactive: [1] 0.009 | vorinostat -0.005 | silmitasertib 0.027 | [2] -0.02 | entospletinib 0.018

SAR1B (UniProt Q9Y6B6)
inactive: [1] -0.083 | vorinostat 0.155 | silmitasertib -0.103 | [2] -0.044 | entospletinib -0.053

SCYL2 (UniProt Q6P3W7)
inactive: [1] 0.023 | vorinostat 0.115 | silmitasertib -0.026 | [2] -0.026 | entospletinib -0.015

SENP6 (UniProt Q9GZR1)
inactive: [1] 0.039 | vorinostat -0.148 | silmitasertib 0.078 | [2] -0.011 | entospletinib -0.079

SENP5 (UniProt Q96HI0)
inactive: [1] 0.036 | vorinostat -0.185 | silmitasertib 0.151 | [2] 0.002 | entospletinib 0.036

SDCBP (UniProt O00560)
inactive: [1] 0.004 | vorinostat 0.093 | silmitasertib -0.044 | [2] 0.08 | entospletinib 0.028

SDE2 (UniProt Q6IQ49)
inactive: [1] 0.034 | vorinostat -0.038 | silmitasertib 0.013 | [2] -0.039 | entospletinib 0.024

SEPTIN8 (UniProt Q92599)
inactive: [1] 0.013 | vorinostat 0.099 | silmitasertib 0.007 | [2] -0.043 | entospletinib 0.013

SCAF1 (UniProt Q9H7N4)
inactive: [1] -0.172 | vorinostat -0.076 | silmitasertib 0.042 | [2] -0.04 | entospletinib 0.025

4 records picked at random from the list so far:
SEPTIN8 (UniProt Q92599)
inactive: [1] 0.013 | vorinostat 0.099 | silmitasertib 0.007 | [2] -0.043 | entospletinib 0.013

SCAMP1 (UniProt O15126)
inactive: [1] 0.023 | vorinostat 0.055 | silmitasertib -0.03 | [2] 0.218 | entospletinib -0.03

SAR1B (UniProt Q9Y6B6)
inactive: [1] -0.083 | vorinostat 0.155 | silmitasertib -0.103 | [2] -0.044 | entospletinib -0.053

SCLY (UniProt Q96I15)
inactive: [1] 0.005 | vorinostat 0.102 | silmitasertib -0.002 | [2] -0.013 | entospletinib 0.004

Following part.

SDSL (UniProt Q96GA7)
inactive: [1] -0.031 | vorinostat 0.108 | silmitasertib 0 | [2] 0.111 | entospletinib 0.004

SCG3 (UniProt Q8WXD2)
inactive: [1] -0.065 | vorinostat 0.057 | silmitasertib -0.031 | [2] -0.026 | entospletinib -0.083

SAP30BP (UniProt Q9UHR5)
inactive: [1] -0.06 | vorinostat 0.094 | silmitasertib -0.014 | [2] 0.011 | entospletinib 0.005

SCAMP2 (UniProt O15127)
inactive: [1] -0.055 | vorinostat 0.081 | silmitasertib 0.024 | [2] 0.032 | entospletinib 0.206

SAMHD1 (UniProt Q9Y3Z3)
active: vorinostat -0.352
inactive: [1] -0.012 | silmitasertib -0.002 | [2] 0.032 | entospletinib 0.031

SEC16A isoform 5 (UniProt O15027)
inactive: [1] 0.053 | silmitasertib 0.008 | [2] -0.029 | entospletinib -0.015
active: vorinostat -0.281

SEC63 (UniProt Q9UGP8)
inactive: [1] 0.023 | vorinostat 0.068 | silmitasertib -0.015 | [2] 0.001 | entospletinib -0.022

SCAF8 (UniProt Q9UPN6)
inactive: [1] -0.003 | vorinostat -0.159 | silmitasertib 0.011 | [2] 0.01 | entospletinib -0.016

SCCPDH (UniProt Q8NBX0)
inactive: [1] -0.129 | vorinostat 0.34 | silmitasertib -0.19 | [2] 0.115 | entospletinib 0.087

SAMD4A (UniProt Q9UPU9)
inactive: [1] -0.038 | silmitasertib 0.027 | [2] 0.014 | entospletinib -0.053
active: vorinostat -0.647

SDHB, A0A087WWT1
inactive: [1] -0.079 | vorinostat -0.094 | silmitasertib -0.293 | [2] -0.036 | entospletinib 0.12

SCD (UniProt O00767)
inactive: [1] -0.045 | vorinostat 0.021 | silmitasertib -0.057 | [2] -0.028 | entospletinib 0.017

SART3, A0A499FI31
inactive: [1] -0.019 | vorinostat -0.142 | silmitasertib 0.014 | [2] -0.003 | entospletinib 0.022

SEC23IP (UniProt Q9Y6Y8)
inactive: [1] 0.008 | vorinostat -0.063 | silmitasertib -0.003 | [2] -0.031 | entospletinib -0.012

SEPHS1 (UniProt P49903)
inactive: [1] 0.032 | vorinostat 0.113 | silmitasertib -0.012 | [2] 0.029 | entospletinib 0.002

SELENOS (UniProt Q9BQE4)
inactive: [1] -0.019 | vorinostat 0.009 | silmitasertib -0.084 | [2] 0.029 | entospletinib 0.006

SCAF11 (UniProt Q99590)
inactive: [1] 0.066 | vorinostat 0.045 | silmitasertib -0.039 | [2] -0.073 | entospletinib -0.014

SCO2 (UniProt O43819)
inactive: [1] -0.024 | vorinostat 0.063 | silmitasertib -0.079 | [2] 0.017 | entospletinib 0.053

SAFB isoform 3 (UniProt Q15424)
inactive: [1] 0.036 | vorinostat 0 | silmitasertib 0.006 | [2] -0.006 | entospletinib 0

SDHD (UniProt O14521)
inactive: [1] -0.118 | vorinostat -0.159 | silmitasertib 0.033 | [2] 0.101 | entospletinib 0.094

SATB2 (UniProt Q9UPW6)
inactive: [1] 0 | silmitasertib 0.051 | [2] -0.024 | entospletinib 0.036
active: vorinostat -0.347

SEPTIN2 isoform 2 (UniProt Q15019)
inactive: [1] 0.028 | vorinostat 0.077 | silmitasertib -0.036 | [2] -0.007 | entospletinib -0.007

SCRIB (UniProt Q14160)
inactive: [1] 0.027 | vorinostat -0.184 | silmitasertib -0.012 | [2] -0.054 | entospletinib 0.004

SCPEP1 (UniProt Q9HB40)
inactive: [1] -0.006 | vorinostat -0.082 | silmitasertib 0.05 | [2] 0.039 | entospletinib -0.069
